According to patent US20230365623A1 (FLOREY INSTITUTE OF NEUROSCIENCE AND MENTAL HEALTH, priority 2020, published 2023):

Assay: general procedure: peptide synthesis; Rink Amide MBHA LL resin (A-chain, 0.36 mmol/g); TentaGel R PHB-Thr(tBu) Fmoc preloaded resin (B-chain, glucagon, 0.18 m); HCTU/DIEA

A-chain [Cys7(Pyr), Cys20(Acm)] (IV)
step yield (late stage modification step): 40%

Cys6-Cys11 intramolecularly disulfide-bonded insulin A-chain, [Cys7(tBu), Cys20(Acm)] (III)
oxidative folding yield (oxidative folding step): 28.5%

[A Cys20(Acm)-B Cys19(Acm)] (V)
conjugation yield (conjugation step, calculated from the B-chain): 49%
